# Measured values as given in PubChem BioAssay AID330 (DTP/NCI, 2004).
# The list is a part of this screen's results and no random one: it is rich in T/C values a quarter to a half above the control, in often repeated tests (any T/C) and in doses without a T/C. Further doses and runs are listed elsewhere. T/C gives the treated animals as a percentage of the vehicle group. Some entries give survivors of the animals treated and no T/C: the source files T/C as zero there, which appears to mark a toxic dose or a test without result, not a measured value. Some doses without a T/C left all or most animals alive at the check, yet need not have been tolerated: the source hardly ever lists a survival T/C far under the control, and the zero likely stands for such cases as well. Survivors were counted at the toxicity check, usually on the fifth day, unless a day is given; later deaths do not show. Schedules are NCI's codes, read here as Q, the interval in days (D) or hours (H), X, the number of doses. Some doses were run more than once; the values are given in rising order. Additions like (4×) say how often a value occurs here. For survival time, this PubChem deposit counts one and a half times the control or more as active, and values a quarter to a half above the control carry no call in these data; other NCI protocols may use other cut-offs. Some T/C values carry the count of animals alive at the toxicity check (mostly the fifth day); without a count, all were alive then.
# Test system: P388 leukemia ip, CD2F1 mice, survival T/C
# Assay: NCI In Vivo Anticancer Drug Screen. Data for tumor model P388 Leukemia (intraperitoneal) in CD2F1 (CDF1) mice
# Conditions: T/C endpoint: median survival time, higher T/C = longer survival
# [1] = dose: 12.5 mg/kg/injection, schedule: Q01DX009 (ip), vehicle: saline with Tween-80
# [2] = dose: 25.0 mg/kg/injection, schedule: Q01DX009 (ip), vehicle: saline with Tween-80
# [3] = dose: 50.0 mg/kg/injection, schedule: Q01DX009 (ip), vehicle: saline with Tween-80
# [4] = dose: 100.0 mg/kg/injection, schedule: Q01DX009 (ip), vehicle: saline
# [5] = dose: 150.0 mg/kg/injection, schedule: Q01DX009 (ip), vehicle: water
# [6] = dose: 200.0 mg/kg/injection, schedule: Q01DX009 (ip), vehicle: saline
# [7] = dose: 100.0 mg/kg/injection, schedule: Q01DX009 (ip), vehicle: Klucel (hydroxypropylcellulose) (HPC)
# [8] = dose: 200.0 mg/kg/injection, schedule: Q01DX009 (ip), vehicle: Klucel (hydroxypropylcellulose) (HPC)
structure (smiles),measurement,setting,value
CNC(=O)ON(C(C)=O)C(=O)NC,T/C,[1],131 % of control
same,T/C,"dose: 12.5 mg/kg/injection, schedule: Q01DX009 (ip), vehicle: saline, evaluated on day 30","114, 117 (2×), 126 % of control"
same,T/C,"dose: 12.5 mg/kg/injection, schedule: Q01DX009 (ip), vehicle: saline, evaluated on day 35",137 % of control
same,T/C,"dose: 20.0 mg/kg/injection, schedule: Q01DX009 (ip), vehicle: saline",127 and 128 % of control
same,T/C,[2],126 % of control
same,T/C,"dose: 25.0 mg/kg/injection, schedule: Q01DX009 (ip), vehicle: saline, evaluated on day 30","124, 125 (2×), 130, 133 % of control"
same,T/C,"dose: 25.0 mg/kg/injection, schedule: Q01DX009 (ip), vehicle: saline, evaluated on day 35",141 % of control
same,T/C,"dose: 25.0 mg/kg/injection, schedule: Q01DX009 (ip), vehicle: water",136 % of control
same,survivor count,"dose: 25.0 mg/kg/injection, schedule: Q03HX015 (ip), vehicle: saline",4 of 10
same,survivor count,"dose: 25.0 mg/kg/injection, schedule: Q03HX015 (ip), vehicle: water",5 of 6
same,T/C,"dose: 40.0 mg/kg/injection, schedule: Q01DX009 (ip), vehicle: saline",129 and 130 % of control
same,T/C,"dose: 50.0 mg/kg/injection, schedule: Q01DX005 (ip), vehicle: saline",129 % of control
same,T/C,[3],141 and 142 % of control
same,T/C,"dose: 50.0 mg/kg/injection, schedule: Q01DX009 (ip), vehicle: saline, evaluated on day 30","126, 133, 135, 140, 146 % of control"
same,T/C,"dose: 50.0 mg/kg/injection, schedule: Q01DX009 (ip), vehicle: saline, evaluated on day 35",95 % of control
same,T/C,"dose: 50.0 mg/kg/injection, schedule: Q01DX009 (ip), vehicle: water",145 % of control
same,survivor count,"dose: 50.0 mg/kg/injection, schedule: Q03HX015 (ip), vehicle: saline",0 of 10
same,survivor count,"dose: 50.0 mg/kg/injection, schedule: Q03HX015 (ip), vehicle: water",0 of 6
same,survivor count,"dose: 80.0 mg/kg/injection, schedule: Q01DX009 (ip), vehicle: saline",1 of 6 and 4 of 6
same,survivor count,"dose: 100.0 mg/kg/injection, schedule: Q01DX005 (ip), vehicle: saline",1 of 10 and 2 of 10
same,survivor count,"dose: 100.0 mg/kg/injection, schedule: Q01DX009 (ip), vehicle: saline with Tween-80",1 of 6 and 3 of 6
same,survivor count,[4],"0 of 6, 1 of 10, 2 of 6, 3 of 6, 5 of 6"
same,survivor count,"dose: 100.0 mg/kg/injection, schedule: Q01DX009 (ip), vehicle: water",0 of 6
same,T/C,"dose: 100.0 mg/kg/injection, schedule: Q01DX009 (oral), vehicle: saline",134 % of control
same,survivor count,"dose: 100.0 mg/kg/injection, schedule: Q03HX015 (ip), vehicle: saline",0 of 10
same,T/C,[5],130 % of control
same,survivor count,[5],0 of 6
same,survivor count,"dose: 200.0 mg/kg/injection, schedule: Q01DX001 (ip), vehicle: saline",2 of 10
same,survivor count,"dose: 200.0 mg/kg/injection, schedule: Q01DX005 (ip), vehicle: saline",0 of 10 (2×)
same,T/C,"dose: 200.0 mg/kg/injection, schedule: Q01DX005 (iv), vehicle: saline",125 % of control [8 of 10 alive]
same,survivor count,"dose: 200.0 mg/kg/injection, schedule: Q01DX009 (ip), vehicle: saline with Tween-80",0 of 6
same,survivor count,[6],0 of 6
same,survivor count,"dose: 200.0 mg/kg/injection, schedule: Q01DX009 (ip), vehicle: water",0 of 6
same,T/C,"dose: 200.0 mg/kg/injection, schedule: Q01DX009 (oral), vehicle: saline",142 % of control [9 of 10 alive]
same,survivor count,"dose: 400.0 mg/kg/injection, schedule: Q01DX001 (ip), vehicle: saline",0 of 10
same,survivor count,"dose: 400.0 mg/kg/injection, schedule: Q01DX001 (iv), vehicle: saline",0 of 10
same,survivor count,"dose: 400.0 mg/kg/injection, schedule: Q01DX005 (ip), vehicle: saline",0 of 10
same,survivor count,"dose: 400.0 mg/kg/injection, schedule: Q01DX005 (iv), vehicle: saline",0 of 10
Cc1cc2c(C(C)C)c(O)c(O)c(C=NCCO)c2c(O)c1-c1c(C)cc2c(C(C)C)c(O)c(O)c(C=NCCO)c2c1O,T/C,"dose: 150.0 mg/kg/injection, schedule: Q01DX005 (ip), vehicle: saline with Tween-80",125 % of control
same,T/C,"dose: 200.0 mg/kg/injection, schedule: Q01DX005 (ip), vehicle: saline with Tween-80",131 % of control
same,T/C,"dose: 300.0 mg/kg/injection, schedule: Q01DX005 (ip), vehicle: saline with Tween-80",145 % of control
N=C(N)Cl,survivor count,"dose: 60.0 mg/kg/injection, schedule: Q01DX005 (ip), vehicle: saline",6 of 6
same,survivor count,"dose: 120.0 mg/kg/injection, schedule: Q01DX005 (ip), vehicle: saline",6 of 6
same,survivor count,"dose: 240.0 mg/kg/injection, schedule: Q01DX005 (ip), vehicle: saline",0 of 6
CCCCCCCCCCOC(=O)CC(C)=O.CCCCCCCCCCOC(=O)CC(C)=O.[Ni+2],survivor count,[6],1 of 6
CC(=O)NCCCCCCNC(C)=O,T/C,[4],125 % of control
same,survivor count,"dose: 4000.0 mg/kg/injection, schedule: Q01DX001 (ip), vehicle: saline",0 of 10
same,survivor count,"dose: 4000.0 mg/kg/injection, schedule: Q04DX003 (ip), vehicle: saline",0 of 10
Cc1ccc2c(ccc(/C=C\c3cc(C)c4cccnc4c3O)[n+]2C)c1,T/C,"dose: 1.56 mg/kg/injection, schedule: Q01DX009 (ip), vehicle: saline with Tween-80",130 % of control
same,T/C,"dose: 3.13 mg/kg/injection, schedule: Q01DX009 (ip), vehicle: saline with Tween-80",134 % of control
same,survivor count,"dose: 6.25 mg/kg/injection, schedule: Q01DX009 (ip), vehicle: saline with Tween-80",3 of 6 and 5 of 6
same,survivor count,[1],6 of 6
same,survivor count,[2],0 of 6
same,survivor count,[3],0 of 6
Nc1nc2ccc(CNc3ccc(C(=O)NC(CC(=O)O)C(=O)O)cc3)cc2c(=O)[nH]1 (stereo not given),T/C,[7],128 % of control [5 of 6 alive]
same,T/C,[8],139 % of control
CCOC(=O)c1cc(/C=C/c2ccc(Cl)cc2Cl)on1,survivor count,"dose: 240.0 mg/kg/injection, schedule: Q01DX005 (ip), vehicle: saline with Tween-80",0 of 6
CC1(C)N=C(N)N=C(N)N1c1ccc(F)cc1,survivor count,"dose: 50.0 mg/kg/injection, schedule: Q01DX005 (ip), vehicle: Klucel (hydroxypropylcellulose) (HPC)",0 of 6
CC1=C(C)C(=O)C2=C(OCCO2)C1=O,survivor count,"dose: 60.0 mg/kg/injection, schedule: Q01DX005 (ip), vehicle: Klucel (hydroxypropylcellulose) (HPC)",5 of 6
same,survivor count,"dose: 120.0 mg/kg/injection, schedule: Q01DX005 (ip), vehicle: Klucel (hydroxypropylcellulose) (HPC)",0 of 6
same,survivor count,"dose: 240.0 mg/kg/injection, schedule: Q01DX005 (ip), vehicle: Klucel (hydroxypropylcellulose) (HPC)",0 of 6
COc1ccc2nc3cc(Cl)ccc3c(Nc3ccc(O)c(CN(CCCl)CCCl)c3)c2c1,survivor count,"dose: 0.13 mg/kg/injection, schedule: Q01DX009 (ip), vehicle: saline with Tween-80",6 of 6
same,T/C,"dose: 0.18 mg/kg/injection, schedule: Q01DX009 (ip), vehicle: saline with Tween-80",136 % of control
same,survivor count,"dose: 0.2 mg/kg/injection, schedule: Q01DX009 (ip), vehicle: saline with Tween-80",6 of 6
same,T/C,"dose: 0.27 mg/kg/injection, schedule: Q01DX009 (ip), vehicle: saline with Tween-80",131 % of control
same,T/C,"dose: 0.4 mg/kg/injection, schedule: Q01DX009 (ip), vehicle: saline with Tween-80",145 % of control
C/C=C/C=C1/OC(C)=C(C(=O)OCC)C1=O,T/C,"dose: 25.0 mg/kg/injection, schedule: Q01DX009 (ip), vehicle: Klucel (hydroxypropylcellulose) (HPC)",127 % of control
same,T/C,"dose: 50.0 mg/kg/injection, schedule: Q01DX009 (ip), vehicle: Klucel (hydroxypropylcellulose) (HPC)",127 % of control
same,survivor count,[7],6 of 6
same,survivor count,[8],3 of 6
